experiment: general procedure: Fmoc solid-phase peptide synthesis; Rink amide resin; HBTU/HOBt (0.45 M) and DIEA; conditions: whole synthesis, analytical HPLC, YMC-Pack ODS C18, 5 micron; MALDI-TOF for mass, acetate

| Sequence | final HPLC purity |
| --- | --- |
| ACDTATCVTHRLADLLSRSGGVVKSNFVPTNVGSKAF-NH2 (ACDTATCVTHRLADLLSRSGGVVKSNFVPTNVGSKAF; cyclised or stapled) | 99% |
| ACDTATCVTHRLAGLLSRSGGVVKSNFVPTNVGSKAF-NH2 (ACDTATCVTHRLAGLLSRSGGVVKSNFVPTNVGSKAF; cyclised or stapled) | 98% |
| ACNTATCVTHRLAGLLSRSGGVVKSNFVPTNVGSKAF-NH2 (ACNTATCVTHRLAGLLSRSGGVVKSNFVPTNVGSKAF; cyclised or stapled) | 96% |

Source: patent publication US20110150980A1 (VasoGenix Pharmaceuticals, Inc., priority 2009, published 2011)
